Measurements reported in PubChem BioAssay AID504808 (Drosophila RNAi Screening Center, 2011).
Aim: 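Genes whose loss lifts activity of an E2F-responsive reporter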 (primary screen). System: Drosophila S2 cells. Reagents: long dsRNA against Drosophila genes. Measured: 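Dual luciferase plate measurements; E2F-specific signal taken as firefly over Renilla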. Reading the numbers: E2F firefly: higher = more E2F reporter activity; Renilla normaliser: higher = more normaliser reporter signal. Hit rule: 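a knock-down counted as active when the firefly/Renilla E2F signal rose above 50%, a threshold chosen arbitrarily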.
In all, the deposit lists about 21,000 reagents; shown is a random part of those that have a named target and a result. In the full data, 18 (0.084%) got an active call. 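Raw counts without plate normalisation, one of two replicates; the ratio scores behind the calls were not deposited.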 A plus sign joins genes that one reagent is predicted to hit. Reagent sequences are not shown. Not given: the amount of reagent, the time to read-out.

| target gene | amplicon | E2F firefly, rep 1 | Renilla normaliser, rep 1 | Call |
| --- | --- | --- | --- | --- |
| Rsf1 | DRSC03423 | 1.50e5 | 5611 | inactive |
| Ir67b | DRSC09876 | 1.03e5 | 4900 | inactive |
| CG34002 | DRSC09512 | 1.43e5 | 3620 | inactive |
| CG34002 | DRSC11953 | 97845 | 4315 | inactive |
| CG34434 | DRSC18134 | 1.63e5 | 6602 | inactive |
| Pc | DRSC11873 | 1.24e5 | 6167 | inactive |
| Ugt35E2 | DRSC16083 | 1.53e5 | 7063 | inactive |
| CG9083 | DRSC04625 | 77860 | 3349 | inactive |
| CG17260 | DRSC00497 | 88521 | 3821 | inactive |
| qtc | DRSC02364 | 98860 | 4114 | inactive |
| qtc | DRSC02365 | 1.44e5 | 5058 | inactive |
| CARPA | DRSC17905 | 97321 | 4768 | inactive |
| CG12964 | DRSC06266 | 87275 | 3603 | inactive |
| CG15330 | DRSC18014 | 1.05e5 | 5180 | inactive |
| CG4000 | DRSC15535 | 1.25e5 | 6040 | inactive |
| Lip3 | DRSC16727 | 1.08e5 | 5824 | inactive |
| CG31673 | DRSC03207 | 76037 | 3292 | inactive |
| Ogg1 | DRSC17738 | 8115 | 676 | inactive |
| Lcp65Ac | DRSC11210 | 1.03e5 | 3943 | inactive |
| AlaRS | DRSC01851 | 99996 | 3623 | inactive |
| CG14374 | DRSC14834 | 1.17e5 | 5591 | inactive |
| Chmp1 | DRSC10401 | 87998 | 4165 | inactive |
| Oatp58Da | DRSC04365 | 93042 | 3942 | inactive |
| unc80 | DRSC15329 | 1.19e5 | 5372 | inactive |
| hpRNA:CR18854 | DRSC02702 | 1.39e5 | 4925 | inactive |
| JhI-26 | DRSC06851 | 69207 | 3456 | inactive |
| CG6664 | DRSC10690 | 72078 | 3955 | inactive |
| CG15571 | DRSC18059 | 1.04e5 | 6126 | inactive |
| CG3251 | DRSC00586 | 1.73e5 | 6262 | inactive |
| mRpS2 | DRSC00550 | 1.54e5 | 5083 | inactive |
| CG11414 | DRSC04110 | 85980 | 3585 | inactive |
| Calx | DRSC13457 | 85991 | 2375 | inactive |
| Calx | DRSC13459 | 77190 | 2462 | inactive |
| Calx | DRSC16599 | 1.20e5 | 7214 | inactive |
| Polr2B | DRSC16831 | 52553 | 3874 | inactive |
| Rim2 | DRSC00073 | 1.38e5 | 6747 | inactive |
| Rim2 | DRSC00520 | 84307 | 3715 | inactive |
| Rpi | DRSC04583 | 1.06e5 | 4030 | inactive |
| brat | DRSC03497 | 60345 | 3368 | inactive |
| IRSp53 | DRSC10891 | 1.18e5 | 7432 | inactive |
| kug | DRSC10911 | 77650 | 4082 | inactive |
| Syx16 | DRSC20507 | 1.58e5 | 5536 | inactive |
| Desat2 | DRSC15919 | 1.38e5 | 5726 | inactive |
| GstO2 | DRSC10691 | 69597 | 3472 | inactive |
| lolal | DRSC06948 | 67167 | 2953 | inactive |
| U4-U6-60K | DRSC10624 | 69633 | 3566 | inactive |
| CG12506 | DRSC00347 | 1.76e5 | 6199 | inactive |
| CG13931 | DRSC08400 | 98007 | 4041 | inactive |
| Dap160 | DRSC03313 | 79066 | 2964 | inactive |
| CG42697 | DRSC05740 | 1.70e5 | 7436 | inactive |
| tapas | DRSC05950 | 80997 | 3926 | inactive |
| sloth2 + sloth1 | DRSC17922 | 1.20e5 | 6691 | inactive |
| sloth2 + sloth1 | DRSC17923 | 1.14e5 | 6123 | inactive |
| Arms | DRSC03856 | 53918 | 3421 | inactive |
| Arms | DRSC03857 | 1.29e5 | 4720 | inactive |
| Arms | DRSC04052 | 78235 | 3508 | inactive |
| Arms | DRSC04256 | 86673 | 3934 | inactive |
| Ir7f | DRSC18012 | 51566 | 3456 | inactive |
| Gr5a | DRSC18085 | 60244 | 4354 | inactive |
| mRpL50 | DRSC11015 | 71281 | 3334 | inactive |
| Septin2 | DRSC16855 | 72370 | 5017 | inactive |
| betaTub56D | DRSC07583 | 1.33e5 | 4850 | inactive |
| CG31778 | DRSC00283 | 81806 | 3533 | inactive |
| CG14712 | DRSC14935 | 48809 | 2616 | inactive |
| CG8773 | DRSC16444 | 78297 | 3647 | inactive |
| CG11899 | DRSC16656 | 1.35e5 | 6903 | inactive |
| CG33483 | DRSC14019 | 97074 | 2480 | inactive |
| mri | DRSC08259 | 66731 | 3419 | inactive |
| CG5897 | DRSC10555 | 1.39e5 | 6754 | inactive |
| Arfip | DRSC15179 | 74447 | 3457 | inactive |
| CG7168 | DRSC16208 | 73033 | 3687 | inactive |
| Pabp2 | DRSC07501 | 60325 | 3750 | inactive |
| CG13077 | DRSC02181 | 1.08e5 | 4045 | inactive |
| lost | DRSC12002 | 98488 | 4292 | inactive |
| lost | DRSC12234 | 92181 | 3218 | inactive |
| Mvl | DRSC16752 | 72295 | 3327 | inactive |
| CG32971 | DRSC01372 | 1.30e5 | 5199 | inactive |
| E(bx) | DRSC08172 | 1.14e5 | 4972 | inactive |
| E(bx) | DRSC08509 | 1.06e5 | 5388 | inactive |
| E(bx) | DRSC08583 | 78866 | 3566 | inactive |
| MED1 | DRSC11808 | 76113 | 3830 | inactive |
| LSm7 | DRSC02251 | 92612 | 4443 | inactive |
| CG13725 | DRSC10054 | 51507 | 2640 | inactive |
| Jon74E | DRSC10617 | 1.59e5 | 6974 | inactive |
| CG13531 | DRSC04173 | 90754 | 3875 | inactive |
| tj | DRSC02011 | 96756 | 3839 | inactive |
| CG14853 | DRSC14977 | 1.08e5 | 5258 | inactive |
| CG8908 | DRSC07297 | 1.54e5 | 5080 | inactive |
| Vps25 | DRSC06486 | 1.39e5 | 4636 | inactive |
| Gpo3 | DRSC01978 | 1.02e5 | 4170 | inactive |
| Gr28b | DRSC02291 | 1.54e5 | 5967 | inactive |
| Gr28b | DRSC02292 | 1.54e5 | 5552 | inactive |
| gce | DRSC19613 | 1.42e5 | 6704 | inactive |
| gce | DRSC19974 | 1.16e5 | 5713 | inactive |
| uno | DRSC07244 | 1.68e5 | 5054 | inactive |
| Zyx | DRSC17186 | 75843 | 2897 | inactive |
| p120ctn | DRSC07753 | 1.00e5 | 4345 | inactive |
| CG42355 | DRSC07967 | 1.07e5 | 4309 | inactive |
| CG6769 | DRSC20006 | 1.42e5 | 5966 | inactive |
| CG33096 | DRSC14440 | 63261 | 2852 | inactive |
| CG30466 | DRSC05556 | 1.27e5 | 4514 | inactive |
| CG34290 | DRSC13660 | 89115 | 2345 | inactive |
| CG14632 (retired record) | DRSC17942 | 1.20e5 | 5246 | inactive |
| Atg10 + CG18853 + CG12822 | DRSC20757 | 72631 | 2954 | inactive |
| CG15548 | DRSC15086 | 1.43e5 | 7075 | inactive |
| Zdhhc8 | DRSC18044 | 1.22e5 | 5326 | inactive |
| Zdhhc8 | DRSC18122 | 1.20e5 | 6040 | inactive |

9 neighbouring reagents already listed, for reference:
| target gene | amplicon | E2F firefly, rep 1 | Renilla normaliser, rep 1 | Call |
| --- | --- | --- | --- | --- |
| Mvl | DRSC16752 | 72295 | 3327 | inactive |
| CG32971 | DRSC01372 | 1.30e5 | 5199 | inactive |
| E(bx) | DRSC08172 | 1.14e5 | 4972 | inactive |
| E(bx) | DRSC08509 | 1.06e5 | 5388 | inactive |
| E(bx) | DRSC08583 | 78866 | 3566 | inactive |
| MED1 | DRSC11808 | 76113 | 3830 | inactive |
| LSm7 | DRSC02251 | 92612 | 4443 | inactive |
| CG13725 | DRSC10054 | 51507 | 2640 | inactive |
| Jon74E | DRSC10617 | 1.59e5 | 6974 | inactive |
